Source: PubChem BioAssay AID743266 (National Center for Advancing Translational Sciences (NCATS), 2014)
In all, about 410,000 compounds went through this assay and about 310 (0.076%) were called active. Inconclusive results, whose numbers are uncertain, are shown with a selection of clear calls. The call rests on the fitted dose curve; in most records, active means well fitted activation curve with a large enough effect; inconclusive means small, poorly fitted or top-dose-only effect, or another doubt; inactive means no such curve, though single readings can be large or run the other way. A potency beside an inconclusive call is a rough fit, not a confirmed value.

The chains behind the UniProt entries cited, without tags or fusion partners. Where a name states a change or a piece, a line headed by the entry shows the natural chain unless it says otherwise.
UniProt Q03431: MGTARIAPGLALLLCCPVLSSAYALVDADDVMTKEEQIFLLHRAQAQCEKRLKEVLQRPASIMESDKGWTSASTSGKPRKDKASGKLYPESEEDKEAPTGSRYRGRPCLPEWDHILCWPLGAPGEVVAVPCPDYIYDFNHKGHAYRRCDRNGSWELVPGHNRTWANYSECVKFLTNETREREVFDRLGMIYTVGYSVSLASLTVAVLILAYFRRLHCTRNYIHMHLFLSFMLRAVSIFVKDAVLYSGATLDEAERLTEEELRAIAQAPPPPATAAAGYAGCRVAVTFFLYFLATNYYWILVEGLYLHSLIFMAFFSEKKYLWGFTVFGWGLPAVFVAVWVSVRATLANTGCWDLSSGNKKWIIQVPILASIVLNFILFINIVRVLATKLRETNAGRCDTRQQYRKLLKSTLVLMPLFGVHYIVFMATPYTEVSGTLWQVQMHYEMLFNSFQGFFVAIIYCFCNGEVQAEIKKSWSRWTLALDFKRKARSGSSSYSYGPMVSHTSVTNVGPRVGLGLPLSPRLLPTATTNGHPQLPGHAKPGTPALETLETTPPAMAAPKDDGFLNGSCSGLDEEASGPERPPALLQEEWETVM

Target: Parathyroid hormone/parathyroid hormone-related peptide receptor (Homo sapiens) (UniProt Q03431)
Experiment: qHTS for PTHR1 Agonists: Primary Screen; further: nearly all actives have a fitted effect of over 55% in size
Conditions: HEK293 GP2 PTHR1 cells, GloSensor cAMP luminescence, 1 h; activation: at 115 µM (top of the series) unless noted; series mostly up to 115 µM
Outline: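 HEK-293-derived GP2 cells expressing PTHR1 and a GloSensor cAMP reporter, 3,000/well, plated overnight, given luciferin plus IBMX (each 0.5 mM as added) for 1 h at 37 °C, then compound for 1 h at 37 °C. Luminescence was read after 15 min at room temperature.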
Potency means the concentration at half of the fitted maximal effect.

Structure (SMILES)	activation	Potency
CCc1ccc(NC(=O)c2cnc(SC)nc2C)cc1	inconclusive: -54.7% [activator]	
COc1ccc(Br)cc1CN1C(=O)c2ccccc2C1C(=O)NC1CCCCCC1 (centres undefined)		inactive
Cc1cc(-c2nnc(SCC(=O)Nc3ccccc3)n2C)no1	inconclusive: -20.3% [activator]	
O=c1[nH]c(/C=C/c2ccccc2)c([N+](=O)[O-])c(=O)[nH]1		inactive
COc1ccc(S(=O)(=O)N2CCCCC2c2cc(C(=O)NCc3cccnc3)no2)cc1 (centres undefined)		inactive
C/C(CC(=O)Nc1cc(C)ccn1)=N\NC(=O)c1cccc(F)c1	inconclusive: -59.2% [activator]	
CN(C)Cc1ncccc1Oc1nc2cc(-c3cccc(Cl)c3)sc2c(=O)n1C		inactive
CCOc1ccc(C(=O)N2CCC(c3nc4ccccc4o3)CC2)cc1		inactive
CCCCc1cc(=O)oc2cc(OCC(=O)NC3CCN(Cc4ccccc4)CC3)ccc12	inconclusive: 81.1% [activator]	
CCOc1ccc(NC(=O)CSc2nc3c(oc4ccccc43)c(=O)n2-c2ccccc2C)cc1		inconclusive: 50.1 µM [activator, partial curve, poor fit]
CC(C)C(=O)N[C@@H]1c2ccccc2CC[C@H]1OCc1ccccc1		inconclusive: 126 µM [activator, single point]
COc1cc(NC(=O)c2ccccc2)ccc1NC(=O)Cc1ccccc1	inconclusive: 43.8% [activator]	
COc1ccc(S(=O)(=O)N2CCN(c3ccccc3)CC2)cc1OC	inconclusive: -50.2% [activator]	
COc1ccc(NC(=O)c2ccc(-c3ccccc3)cc2)cc1NS(=O)(=O)c1ccc(F)cc1		inactive
S=C1NC(c2ccccc2)=CC(c2ccccc2)N1 (centres undefined)	inconclusive: -71.4% [activator]	
CCc1ccc(CN(C)C(=O)C2CCC(=O)N(Cc3ccccn3)C2)cc1 (centres undefined)		inconclusive: 39.8 µM [activator, single point]
COc1ccccc1N1N=C(C(=O)c2ccccc2)C2C(=O)N(c3ccc(Br)cc3)C(=O)C21 (centres undefined)		inconclusive: 1.41 µM [activator, full curve, poor fit]
O=C(O)CCNc1nc(-c2ccccc2)nc2ccccc12		inconclusive: 79.4 µM [activator, partial curve, poor fit]
O=C(c1ccccc1)c1nn(-c2ccccc2)c(=O)cc1C(F)(F)F		inactive
CNC(=O)CN(Cc1ccccc1)S(=O)(=O)c1ccc(Cl)cc1		inactive
COc1cc(CNCCO)ccc1OCCc1ccccc1		inconclusive: 89.1 µM [activator, partial curve, poor fit]
CCCSc1nc2sc3c(c2c(=O)n1-c1ccc(C)cc1)CCCC3		inconclusive: 28.2 µM [activator, partial curve, poor fit]
CCOC(=O)CNC(=O)c1c2c(nc3ccccc13)CCCC2		inconclusive: 4.47 µM [activator, single point]

Structure (SMILES)	activation	Potency
COc1ccc(Cl)cc1NS(=O)(=O)c1cccc(C(=O)NCC2(N(C)C)CCCCC2)c1		inactive
CCNC(=O)NCc1c(C)c(C)n(Cc2ccccc2)c1-n1cccc1		inconclusive: 44.7 µM [activator, partial curve, poor fit]
CCS(=O)(=O)c1nc(S(=O)(=O)c2ccc(C)cc2)c(N2CCCC2)s1		inactive
O=C(CN1CCN(c2nc(-c3ccc(F)cc3)cs2)CC1)NCc1ccc2c(c1)OCO2		inactive
O=Nc1c(O)n(Cc2ccc(Cl)cc2Cl)c2ccccc12		inactive
O=c1ccc(=O)n(-c2ccccc2)[nH]1		inconclusive: 141 µM [activator, single point]
Cc1occc1C(=O)NC1CCCc2ccccc21 (centres undefined)		inconclusive: 50.1 µM [activator, single point]
O=C(c1ccc(NS(=O)(=O)c2ccc3[nH]c(=O)[nH]c3c2)cc1)N1CCN(c2ccccc2O)CC1		inactive
CCOC(=O)c1c(C)[nH]c(CCC(=O)NCc2cc(Br)ccc2OC)c1C		inconclusive: 15.8 µM [activator, partial curve, poor fit]
CC(=O)c1cccc(NC(=O)N2CCCC2C(=O)Nc2ccc3c(c2)OCO3)c1 (centres undefined)	inconclusive: 44.9% [activator]	
N#C/C(=N\Nc1ccc(Cl)cc1)C(=O)c1ccccc1		inactive
O=C(NCC1CCCO1)C1c2ccccc2C(=O)N1Cc1ccc2c(c1)OCO2 (centres undefined)	inconclusive: 33.5% [activator]	
CC(C)CN(C(=O)COc1ccc([N+](=O)[O-])cc1)c1c(N)n(CC(C)C)c(=O)[nH]c1=O		inconclusive: 8.91 µM [activator, partial curve, poor fit]
CC1CCN(C(=O)CSc2nc3c(cnn3-c3ccc(Cl)cc3)c(=O)[nH]2)CC1		inconclusive: 141 µM [activator, single point]
Cc1cccc(-n2nnnc2SCC(=O)NC2CCCC2)c1		inconclusive: 0.767 µM [activator, full curve]
COc1ccc(C)cc1NS(=O)(=O)c1ccc2c(c1)CCCN2C(C)=O		inconclusive: 17.8 µM [activator, partial curve, poor fit]
CCCCCC(=O)N1C[C@@H](O)[C@H](n2cc(COC(=O)c3ccccc3)nn2)C[C@@H]1c1ccc(Cl)cc1		inactive
CC(C)(CO)Cc1cc(C(C)(C)C)c(O)c(C(C)(C)C)c1		inactive
CCN1C(=O)c2cccc3c(S(=O)(=O)N4CCNCC4)ccc1c23		inconclusive: 89.1 µM [activator, partial curve, poor fit]
COc1ccccc1N1CCN(c2c3c(nc4nncn24)CCC3)CC1		inconclusive: 112 µM [activator, single point]
CCc1nnc(NS(=O)(=O)c2ccc(N=CC3=C(O)CC(C)(C)CC3=O)cc2)s1		inconclusive: 126 µM [activator, single point]
Cc1cc(C)cc(C(=O)NC(CC(N)=O)c2ccc(N3CCC(Br)CC3)c([N+](=O)[O-])c2)c1 (centres undefined)		inconclusive: 141 µM [activator, single point]
CC(=O)c1cc(C#N)c(N2CCN(c3ccccc3)CC2)nc1C	inconclusive: -51.2% [activator]	

Structure (SMILES)	activation	Potency
O=C(NCC(c1cccnc1)N1CCc2ccccc21)C(=O)Nc1ccccc1F (centres undefined)	inconclusive: -70.2% [activator]	
COc1ccc(S(=O)(=O)NCC(c2ccco2)N2CCN(c3ccccc3F)CC2)cc1C (centres undefined)		inactive
CCOC(=O)c1c(C)oc2nc(C)nc(N3CCN(c4cccc(C)c4C)CC3)c12		inconclusive: 141 µM [activator, single point]
COc1ccc(N2C(=O)CC(N3CCN(C4CCc5ccccc5C4)CC3)C2=O)cc1 (centres undefined)		inconclusive: 56.2 µM [activator, single point]
Cc1oc2c(c(=O)c1C)C(=O)CC(c1ccccc1)C2 (centres undefined)		inactive
COc1cccc2cc(/C(C)=N/Nc3nc(-c4cc(C)ccc4C)cs3)c(=O)oc12		inconclusive: 39.8 µM [activator, single point]
CN(CC(=O)Nc1ccc(F)cc1)C(=O)c1cc(-c2ccco2)nc2ccccc12		inactive
Cc1cc(C(=O)NNS(=O)(=O)c2cccc(Cl)c2)nn1C(C)(C)C		inconclusive: 22.4 µM [activator, partial curve, poor fit]
N#Cc1ccccc1CSc1nnc(-c2ccncc2)o1		inconclusive: 50.1 µM [activator, partial curve, poor fit]
CCn1c(COc2ccccc2)nnc1SCc1ccc(C#N)cc1		inconclusive: 5.62 µM [activator, full curve, poor fit]
CN(C)c1ccc(NC(=O)CSC2=Nc3ccccc3C3=NC(CC(=O)NCc4ccc5c(c4)OCO5)C(=O)N23)cc1 (centres undefined)	inconclusive: -96.1% [activator]	
Cc1ccc(S(=O)(=O)Nc2c(C)nc3nc(C)[nH]n3c2=O)c(C)c1		inconclusive: 89.1 µM [activator, partial curve, poor fit]
Cc1cccc(OCCCSc2nc(-c3ccc(C(C)(C)C)cc3)nc3cc(=O)[nH]n23)c1C	inconclusive: -22.9% [activator]	
COc1cc2c3nnc(-c4ccc(F)cc4)c-3cn(Cc3cccc(F)c3)c2cc1OC		inconclusive: 1.78 µM [activator, full curve, poor fit]
Cc1nn(CCC(=O)NCc2cccc(Br)c2)c(=O)c2nn(-c3ccccc3)c(C)c12		inactive
CCn1c(=O)c2sccc2n2c(CCC(=O)N3CCN(c4ccccc4OC)CC3)nnc12		inconclusive: 11.2 µM [activator, partial curve, poor fit]
CCCC[C@@H]1CNCCN1CCc1cccc2ccccc12		inconclusive: 50.1 µM [activator, partial curve, poor fit]
O=C(O)c1cc2c([nH]c1=O)CCCC2		inactive
CCOC(=O)c1ccc(-n2c(CCC(=O)O)ccc2-c2ccc(F)cc2)cc1		inactive
NS(=O)(=O)c1ccc(N=Nc2c(O)c(C(=O)O)cc3ccccc23)cc1		inconclusive: 70.8 µM [activator, partial curve, poor fit]
Cc1ccc(NC(=O)Cn2sc3nc(C)cc(C)c3c2=O)c(Cl)c1		inactive
CC(C(=O)NCc1cccc(Br)c1)n1ncn2cccc2c1=O (centres undefined)		inconclusive: 50.1 µM [activator, partial curve, poor fit]
Clc1ccc(CNC2CCN(Cc3ccccc3)CC2)cc1		inactive

Reprinted at random: three records from the list.
Structure (SMILES)	activation	Potency
Cc1oc2c(c(=O)c1C)C(=O)CC(c1ccccc1)C2 (centres undefined)		inactive
NS(=O)(=O)c1ccc(N=Nc2c(O)c(C(=O)O)cc3ccccc23)cc1		inconclusive: 70.8 µM [activator, partial curve, poor fit]
Cc1cc(C(=O)NNS(=O)(=O)c2cccc(Cl)c2)nn1C(C)(C)C		inconclusive: 22.4 µM [activator, partial curve, poor fit]
